Test [1] deals with DEAD-box helicase 3, X-linked (mouse (endogenous in BMDMs and primary hepatocytes)) (UniProt Q62167). In words: co-IP; endogenous proteins in mouse primary hepatocytes under PA induction; bait not given.
Test [2] shares this target. The experiment in a line: co-IP; endogenous proteins in mouse BMDMs under PA induction; bait not given.

The chains behind the UniProt entries cited, without tags or fusion partners.
UniProt Q62167: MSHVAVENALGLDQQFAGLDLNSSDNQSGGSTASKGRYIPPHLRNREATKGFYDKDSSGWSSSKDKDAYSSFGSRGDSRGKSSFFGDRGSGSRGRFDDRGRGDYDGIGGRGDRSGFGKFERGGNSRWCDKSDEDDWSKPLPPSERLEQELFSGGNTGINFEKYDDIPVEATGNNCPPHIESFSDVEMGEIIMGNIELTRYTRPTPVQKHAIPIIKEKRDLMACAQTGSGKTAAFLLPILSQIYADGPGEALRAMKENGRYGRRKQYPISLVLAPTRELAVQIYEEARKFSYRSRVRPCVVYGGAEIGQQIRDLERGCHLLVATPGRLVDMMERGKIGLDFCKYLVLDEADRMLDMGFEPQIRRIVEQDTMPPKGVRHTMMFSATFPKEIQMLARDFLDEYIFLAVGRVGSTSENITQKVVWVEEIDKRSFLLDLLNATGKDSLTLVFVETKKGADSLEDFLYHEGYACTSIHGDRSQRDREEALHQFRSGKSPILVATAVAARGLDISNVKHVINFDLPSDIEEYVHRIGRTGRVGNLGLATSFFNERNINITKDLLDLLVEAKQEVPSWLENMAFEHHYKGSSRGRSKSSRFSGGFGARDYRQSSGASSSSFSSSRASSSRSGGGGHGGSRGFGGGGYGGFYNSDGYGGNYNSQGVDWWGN
UniProt Q8R4B8: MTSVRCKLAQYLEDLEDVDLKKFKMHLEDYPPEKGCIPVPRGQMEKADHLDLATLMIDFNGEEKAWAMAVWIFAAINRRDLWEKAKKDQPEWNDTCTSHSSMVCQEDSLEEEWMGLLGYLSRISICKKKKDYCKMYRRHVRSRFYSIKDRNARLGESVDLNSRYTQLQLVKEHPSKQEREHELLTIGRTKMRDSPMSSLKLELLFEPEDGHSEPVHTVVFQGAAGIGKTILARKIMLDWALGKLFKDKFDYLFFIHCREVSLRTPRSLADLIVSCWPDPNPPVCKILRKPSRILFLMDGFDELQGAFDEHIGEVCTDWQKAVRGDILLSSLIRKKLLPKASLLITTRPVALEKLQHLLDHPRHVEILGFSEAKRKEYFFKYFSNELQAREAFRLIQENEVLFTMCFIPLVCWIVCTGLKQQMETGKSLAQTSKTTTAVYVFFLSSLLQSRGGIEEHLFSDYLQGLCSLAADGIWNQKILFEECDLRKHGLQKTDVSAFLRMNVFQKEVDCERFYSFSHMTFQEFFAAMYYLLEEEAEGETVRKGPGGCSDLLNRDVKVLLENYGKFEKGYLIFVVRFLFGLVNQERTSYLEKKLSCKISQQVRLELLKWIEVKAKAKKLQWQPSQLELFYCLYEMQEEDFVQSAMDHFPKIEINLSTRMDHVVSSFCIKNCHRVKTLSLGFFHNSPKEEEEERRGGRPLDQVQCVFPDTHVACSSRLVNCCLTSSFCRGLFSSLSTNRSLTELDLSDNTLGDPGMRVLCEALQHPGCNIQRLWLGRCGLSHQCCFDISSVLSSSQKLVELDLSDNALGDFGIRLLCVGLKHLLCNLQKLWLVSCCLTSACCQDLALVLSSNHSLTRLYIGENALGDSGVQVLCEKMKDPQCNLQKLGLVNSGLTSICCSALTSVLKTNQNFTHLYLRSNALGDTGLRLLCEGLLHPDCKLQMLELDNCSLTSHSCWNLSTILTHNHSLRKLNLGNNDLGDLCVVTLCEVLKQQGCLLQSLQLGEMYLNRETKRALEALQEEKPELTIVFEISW

These are yes or no findings as the source states them, for the method shown. In cells and extracts the contact can be indirect. Some binding calls cover weakened binding; strength is not graded here.

Take “NOD-like receptor family pyrin domain containing 3 (from UniProt Q8R4B8 1-1033)”: the binding entry in test [1] and in test [2] was “binds” in each case.

These data come from paper PMC10712874.
